Six molecules from EP3061768A1 (dated 2016) can be followed below.

By UniProt entry, the sequences of proteins in these tests, tags left out. Residues count along the entry.
UniProt P01584, residues 117-269: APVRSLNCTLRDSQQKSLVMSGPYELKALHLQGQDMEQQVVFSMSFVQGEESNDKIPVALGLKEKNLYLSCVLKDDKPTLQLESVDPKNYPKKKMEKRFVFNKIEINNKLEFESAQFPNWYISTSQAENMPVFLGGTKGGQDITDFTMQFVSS

Results are given in words; binding and its absence hold for the method and conditions named. Some binding calls cover weakened binding; strength is not graded here. Tags and fused reporters may be left off the sequences shown.

B1: safe variant 1F2 gene3-Fab fusion on phage (Fab, V domains shown)
VH: EVQLLESGGGLVQPGGSLRLSCAASGFTFSTYAMSWVRQAPGKGPEWVSGINTGGGSTGYADSVKGRFTISRDNSKNTLYLQMNSLRPEDTAVYYCAKDWMATTPWGQGTQVTVSS
VL: QTVVTQEPSFSVSPGGTVTLTCGLSSGSVTTNNYPGWFQQTPGQAPRTLIYNTNNRHSGVPSRFSGSILGNKAALTITGAQADDESDYYCALYMSSGSNNAVFGGGTKLTVLG
notes: The text says 'partially humanized V lambda fused to human C lambda and CH1'; the result sentence speaks of back mutations in both VL and VH, so the safe VH is used; also called safe 1F2; partially humanized 1F2
B2: hum 1F2 gene3-Fab fusion on phage (Fab, V domains shown)
VH: EVQLLESGGGLVQPGGSLRLSCAASGFTFSTYAMSWVRQAPGKGLEWVSGINTGGGSTGYADSVKGRFTISRDNSKNTLYLQMNSLRAEDTAVYYCAKDWMATTPWGQGTLVTVSS
VL: QTVVTQEPSFSVSPGGTVTLTCGLSSGSVTTNNYPGWYQQTPGQAPRTLIYNTNNRSSGVPDRFSGSILGNKAALTITGAQADDESDYYCALYMSSGSNNAVFGGGTKLTVLG
notes: also called fully humanized 1F2
B3: chimeric 1E2 Fab (llama V lambda and VH of 1E2 fused to human C lambda and CH1) (Fab, V domains shown)
VH: EVQLVESGGGLVQPGGSLRLSCTASGFTFSNYWMYWVRQAPGKGLEWVSAINAAGSTYYADSVKGRFTISRDNAKNTLYLQMNSLQSEDTALYYCANLPRWGQGTQVTVSS
VL: QTVVTQEPSLSVSPGGTVTLTCGLSSGSVTSGNYPGWYQQKPGQAPRTLIYNTNSRYSGVPNRFSGSISGNKAALTITGAQPEDEADYYCAVYIGSSSYPVVFGGGTHLTVLG
B4: Fab 1E2 wt V lambda / safe VH (Fab, V domains shown)
VH: EVQLVESGGGLVQPGGSLRLSCAASGFTFSNYWMYWVRQAPGKGLEWVSAINAAGSTYYADSVKGRFTISRDNSKNTLYLQMNSLQSEDTAVYYCANLPRWGQGTQVTVSS
VL: QTVVTQEPSLSVSPGGTVTLTCGLSSGSVTSGNYPGWYQQKPGQAPRTLIYNTNSRYSGVPNRFSGSISGNKAALTITGAQPEDEADYYCAVYIGSSSYPVVFGGGTHLTVLG
B5: Fab 1E2 wt V lambda / hum VH (Fab, V domains shown)
VH: EVQLVESGGGLVQPGGSLRLSCAASGFTFSNYWMYWVRQAPGKGLEWVSAINAAGSTYYADSVKGRFTISRDNSKNTLYLQMNSLRAEDTAVYYCANLPRWGQGTLVTVSS
VL: QTVVTQEPSLSVSPGGTVTLTCGLSSGSVTSGNYPGWYQQKPGQAPRTLIYNTNSRYSGVPNRFSGSISGNKAALTITGAQPEDEADYYCAVYIGSSSYPVVFGGGTHLTVLG
B6: wild type llama 1E2 Fab (Fab, V domains shown)
VH: EVQLVESGGGLVQPGGSLRLSCTASGFTFSNYWMYWVRQAPGKGLEWVSAINAAGSTYYADSVKGRFTISRDNAKNTLYLQMNSLQSEDTALYYCANLPRWGQGTQVTVSS
VL: QTVVTQEPSLSVSPGGTVTLTCGLSSGSVTSGNYPGWYQQKPGQAPRTLIYNTNSRYSGVPNRFSGSISGNKAALTITGAQPEDEADYYCAVYIGSSSYPVVFGGGTHLTVLG

One assay addresses human IL-1 Beta (human) (UniProt P01584). The assay is described as follows: phage ELISA: biotinylated IL-1 Beta captured on neutravidin, anti-M13-HRP.
B1: the binding entry is listed as “binds”.
On to B2, for which the binding result is given as “binds”.

Another assay shares this target. The assay is described as follows: ELISA: Fab captured on anti-myc plate, biotinylated human IL-1 Beta, streptavidin-HRP.
Turning to B3, the binding entry was “binds”.
Same read-out and setting: the same measure for B4: “binds”; for B5: “binds”.
On the same count and under the same terms, the same measure for B6: “binds”.
